According to PubChem BioAssay AID912 (National Center for Advancing Translational Sciences (NCATS), 2007):
The campaign covered roughly 70,000 compounds. About 470 (0.67%) were called active. Listed are the inconclusive results; actives and inactives stand elsewhere. Calls follow the shape of the full dose curve. Some results for these compounds are left out of this collection, so the calls shown say nothing about other tests.

Assay: qHTS Assay for Anthrax Lethal Toxin Internalization; also: nearly all actives have a fitted effect of over 50% in size
Details: Cells, FRET ratio (460/530)
Potency is read from the fitted curve at half-maximal effect.

SMILES	Potency
C=C(C)C#C[C@@](O)(C(=O)OC1CCN(C)CC1)c1ccccc1	inconclusive: 794 nM
